14 substances from paper PMC11151024 (2024) can be followed below.

Where a sequence shows no end group, the ends are not given. For part of these data: Strings that start with PEPTIDE1 are HELM notation: dots part the residues, brackets hold end groups and non-standard residues.

The first data set in a line: general procedure: Fmoc solid-phase peptide synthesis; Rink amide resin (0.352 mmol/g). The settings on record: late stage modification step.
H-Tyr-Pro-Phe-Phe-NH2 registered a step yield of 53.1%.

The data set is the same for the next values; noted with them: late stage modification step, 220 nm.
For the substance H-Tyr-Pro-Phe-Phe-NH2, the “final HPLC purity” value came out at 96.74%.

The same data set, now with this note: whole synthesis, 220 nm, scale of the general procedure 0.2 mmol.
Consider RLCYSHKWD, for which the “final HPLC purity” value was found to be 100%.
RLTWCFSDY: the “final HPLC purity” value came to 100.00%.
Turning to H-RWGC-NH2, the “final HPLC purity” value came out at 100.0%.
Consider RLTGCGSDY, for which the “final HPLC purity” value was determined as 94.34%.
For the substance PLCPEEKQRHLDKKQRFHNI, the “final HPLC purity” value worked out at 100%.
For H-DPQERPRKLPQLCTE-OH, the “final HPLC purity” value is on record as 97.15%.
For TCDDPRFQDSS, the “final HPLC purity” value worked out at 93.06%.

The next data set is described as follows: peptide made by a vendor (Fmoc solid-phase peptide synthesis; Rink amide resin (0.352 mmol/g)). The settings on record: whole synthesis, 220 nm, scale of the general procedure 0.2 mmol.
On to H-SFGCWIRTPPAYRPPNAC-OH, for which the “final HPLC purity” value is recorded as 90.51%.
In the case of HRLLRCGNYA, the “final HPLC purity” value was found to be 97.51%.
The same measure, in the same setting: the same measure for H-SFGVWCRTPPAYRPPNC-OH: 90.29%.
On to IVRWSKKVCQVS, for which the “final HPLC purity” value is reported as 98.20%.
As for SFGVCIRTPPAYRPPNAC, the “final HPLC purity” value stood at 90.47%.
For the substance “PEPTIDE1{R.G.D.[dF].C}$PEPTIDE1,PEPTIDE1,5:R2-1:R1$$$V2.0”, the “final HPLC purity” value was determined as 98.26%.
